Experimental data: patent publication US10555989B2, “Treatment of learning disabilities and other neurological disorders with SK channel inhibitor(s)” (priority 2015, dated 2020)

Tested on: KCNN2
Conditions: EtOH- vs PBS-exposed mice, P30; P=0.006

CCO [EtOH, ethanol]
number of KCNN2+ cells in layers II/III in M1 cortex (FIG. 3B): More
